# Experimental data from PubChem BioAssay AID540276 (National Center for Advancing Translational Sciences (NCATS), 2011).
# Out of some 300,000 compounds screened, about 5,400 (1.8%) were called active. Inconclusive results, whose numbers are uncertain, are shown with a selection of clear calls. Calls follow the shape of the full dose curve; tested in HEK293 cells. Where the call is inconclusive, the potency comes from a doubtful curve fit.
# Test: qHTS for inhibitors of binding or entry into cells for Marburg Virus
# Settings: Marburg virus pseudotyped entry inhibition, cell reporter; activity change, negative = inhibition: at 37.8 µM (top of the series) unless noted
# % is scaled to controls: 0 for no effect and ±100 for the full control effect; potency is read from the fitted curve at half-maximal effect.
SMILES,Potency,"activity change, negative = inhibition"
CC(=O)N1CCN(C(=O)c2cccc(S(=O)(=O)N3CCN(c4ccc(F)cc4)CC3)c2)CC1,"inconclusive: 15.8 µM [activator, single point]",–
Cc1ccc(Nc2nc(NCCCN3CCOCC3)nc(N)c2[N+](=O)[O-])cc1,–,inactive: 6.88%
COc1ccc(-c2c(C#N)c(N)n(N)c(=O)c2C#N)cc1Cl,"inconclusive: 20 µM [inhibitor, partial curve, poor fit]",–
CC(=O)c1ccc(NC(=O)CSc2nnc(-c3ccco3)c(-c3ccco3)n2)cc1,"inconclusive: 14.1 µM [inhibitor, single point]",–
S=C(NC1CCCC1)N1CCN(C/C=C/c2ccccc2)CC1,"inconclusive: 8.91 µM [inhibitor, partial curve, poor fit]",–
COc1cc2c(cc1NC(=O)COCC(=O)O)oc1ccccc12,–,inactive: 1.67% [at 46.1 µM]
COc1cc(C(=O)Nc2ccc3oc(-c4cccnc4)nc3c2)cc(OC)c1OC,"inconclusive: 14.1 µM [inhibitor, single point]",–
CCOC(=O)c1ccc(NC(=O)C(=O)NCC2CCCO2)cc1 (stereo unspecified),"inconclusive: 14.1 µM [activator, partial curve, poor fit]",–
Cc1ccccc1NC(=O)CC1NCCNC1=O (stereo unspecified),–,inactive: 1.05% [at 46.1 µM]
COc1ccc(NC(=O)CN(C)Cc2cccs2)cc1Cl,"inconclusive: 35.5 µM [inhibitor, single point]",–
CCOc1cc(CNCCO)cc(Br)c1OCc1ccc(Cl)cc1,"inconclusive: 25.1 µM [inhibitor, single point]",–
O=C(CN1C(=O)C2C3C=CC(C3)C2C1=O)NCCN1CCCc2ccccc21 (stereo unspecified),–,inactive: -12.3%
Cc1ccccc1C(=O)NC(CC(C)C)C(=O)NN1C(=O)c2ccccc2C1=O (stereo unspecified),"inconclusive: 0.631 µM [inhibitor, full curve, poor fit]",–
CCC(=O)N(CC(=O)Nc1sc(C)c(C)c1C(N)=O)C1CCCC1,–,inactive: -14.8% [at 46.1 µM]
Cc1ccc(Nc2ncnc3sc(C)c(C)c23)cc1C,–,inactive: 18.9%
CCN(CC)S(=O)(=O)c1cccc2cccnc12,–,inactive: 2.17%
C/C(=N\NC(=O)c1c(Cl)cnn1C)c1ccc(NC(=O)c2ccncc2)cc1,–,inactive: -18.7%
CC(=O)Nc1nnc(SCC(=O)c2ccc3c(c2)Cc2ccccc2-3)s1,"inconclusive: 4.47 µM [inhibitor, full curve, poor fit]",–
CN(c1ccc(C(=O)N2CCc3ccccc3C2)cc1)S(C)(=O)=O,"inconclusive: 10 µM [activator, partial curve, poor fit]",–
O=C(CSc1nn(-c2ccccc2)c(=S)s1)Nn1cnnc1,–,inactive: 3.76%
O=S1(=O)CCS(=O)(=O)C1c1ccccc1,"inconclusive: 1 µM [inhibitor, partial curve]",–
O=C1[C@@H]2[C@@H](C(=O)N1CC(O)COCc1ccccc1)[C@H]1C=C[C@@H]2C1 (stereo partly specified),"inconclusive: 0.0022 µM [inhibitor, full curve, poor fit]",–
O=C(COc1cccc2c1CCN(Cc1ccc(Br)cc1)C2=O)N1CCOCC1,"inconclusive: 35.5 µM [inhibitor, single point]",–
Cc1ccc2nc(Cl)c(C#N)cc2c1,"inconclusive: 6.31 µM [inhibitor, single point]",–

SMILES,Potency,"activity change, negative = inhibition"
Cc1csc2nc(COc3ccc(NC(=O)C(C)C)cc3)cc(=O)n12,"inconclusive: 25.1 µM [activator, single point]",–
COc1cccc(NC(=O)CN(C)C(=O)c2cc(-c3ccc(F)cc3)nc3ccccc23)c1,"inconclusive: 35.5 µM [inhibitor, single point]",–
N/C(=N\C(=S)Nc1ccccc1)c1ccccc1,"inconclusive: 2.82 µM [activator, partial curve, poor fit]",–
Cc1cc(SCc2cc(=O)[nH]c3ccccc23)nc2ccccc12,"inconclusive: 7.94 µM [inhibitor, partial curve]",–
CN(C)S(=O)(=O)c1ccc(NC(=O)COc2ncnc3sccc23)cc1,"inconclusive: 35.5 µM [activator, single point]",–
Cc1ccccc1Nc1nc(NCc2ccco2)c2ccccc2n1,"inconclusive: 12.6 µM [inhibitor, partial curve, poor fit]",–
CC(Nc1ccnc2cc(Cl)ccc12)c1ccc(S(N)(=O)=O)cc1 (stereo unspecified),–,inactive: -1.71% [at 46.1 µM]
Cc1cc(Oc2nnnn2-c2ccccc2)ccc1Cl,"inconclusive: 29.1 µM [activator, single point]",–
COC(=O)c1ccc(C(=O)OC)c(NC(=O)c2c(-c3ccccc3)noc2C)c1,–,inactive: -3.35% [at 46.1 µM]
CC(C)C(=O)N1CCN(c2ccccc2NC(=O)COc2ccc(C3CCCCC3)cc2)CC1,active: 7.94 µM,–
CCCCC(CC)CNC(=O)CCCCn1c(=O)[nH]c2ccsc2c1=O (stereo unspecified),"inconclusive: 35.5 µM [inhibitor, partial curve, poor fit]",–
CCOc1cc(NC(=S)NCCCN(C)C)c(OCC)cc1NC(=O)C1CC1,"inconclusive: 3.55 µM [inhibitor, partial curve, poor fit]",–
O=C(CCCCCN1CCN(c2ccccc2-c2ccccc2)CC1)NC1CCCc2ccccc21 (stereo unspecified),"inconclusive: 14.6 µM [inhibitor, single point]",–
CC12CN3CC(C)(CN(C1)C3c1ccc([N+](=O)[O-])o1)C2 (stereo unspecified),"inconclusive: 4.47 µM [activator, full curve, poor fit]",–
N=C(N1CCCc2ccccc21)N1CCCc2ccccc21,"inconclusive: 3.55 µM [inhibitor, partial curve, poor fit]",–
O=C(COc1ccccc1F)NCCc1ccc2c(c1)OCCO2,"inconclusive: 7.08 µM [activator, partial curve]",–
CCCCn1c(N)c(N(CCOC)C(=O)c2ccc(Cl)c(S(=O)(=O)N3CCCCC3)c2)c(=O)[nH]c1=O,"inconclusive: 1.26 µM [inhibitor, partial curve, poor fit]",–
C=CCN(c1ccccc1)S(=O)(=O)c1cccc(C(=O)Nc2cc(C)ccn2)c1,active: 8.91 µM,–
CCOc1ccccc1NC(=O)c1cc(-c2cc(OC)c(OC)c(OC)c2)nc2ccccc12,"inconclusive: 20 µM [inhibitor, partial curve, poor fit]",–
COc1ccc2c(=O)c3c(=O)n(-c4ccccc4)c(-c4ccco4)nc3oc2c1,–,inactive: 29.4%
Cc1ccc(C(=O)CSc2nnnn2C(C)C)c(C)c1,active: 5.62 µM,–
N#CCC(=O)N/N=C/c1ccccc1Cl,–,inactive: -1.07% [at 46.1 µM]
CN(C)c1ccc(/C=C/C(=O)c2ccccc2)cc1[N+](=O)[O-],"inconclusive: 29.1 µM [inhibitor, single point]",–
CCOC(=O)c1cc(C#N)c(Nc2ccc(C)cc2)nc1C(F)(F)F,"inconclusive: 1.26 µM [inhibitor, single point]",–

SMILES,Potency,"activity change, negative = inhibition"
COC(=O)c1nnn(CC(=O)Nc2c(C)cccc2C)c1N,"inconclusive: 10 µM [activator, partial curve, poor fit]",–
CC(NC(=O)COC(=O)CC(c1ccccc1)c1ccccc1)c1ccccc1 (stereo unspecified),–,inactive: 3.13%
COc1cc(CN(C(=O)Nc2cccc(Cl)c2)c2ccccn2)cc(OC)c1OC,–,inactive: 3.48% [at 46.1 µM]
CC(O)(C#CCN1CCCCCC1)c1ccccc1 (stereo unspecified),–,inactive: -0.826% [at 46.1 µM]
CCN(CC)c1ccc(C2NC(=O)c3ccccc3N2)cc1 (stereo unspecified),"inconclusive: 6.31 µM [inhibitor, full curve, poor fit]",–
S=C1CSc2ccccc2N1,–,inactive: 23.9%
Cc1ccccc1-n1cnc2c(sc3nc(N4CCOCC4)c4c(c32)CCCC4)c1=O,"inconclusive: 35.5 µM [inhibitor, single point]",–
CC(Sc1nc(-c2ccccc2)cs1)C(=O)Nc1ccc(Cl)cn1 (stereo unspecified),–,inconclusive: 7.71% [activator]
COc1ccccc1-c1cc(C(=O)N/N=C/c2sccc2C)c2ccccc2n1,active: 12.6 µM,–
CCCSc1ncc(Cl)c(C(=O)N2CCN(c3cccc(Cl)c3)CC2)n1,"inconclusive: 3.55 µM [inhibitor, partial curve, poor fit]",–
COc1ccc([C@]23Cc4cc(OC)c(OC)cc4[C@H](O2)c2c(cc(C)n(Cc4ccccc4)c2=O)O3)cc1,"inconclusive: 1.19 µM [activator, partial curve, poor fit]",–
OC(CNCC1CCCO1)Cn1c2ccc(Cl)cc2c2cc(Cl)ccc21 (stereo unspecified),"inconclusive: 25.9 µM [inhibitor, partial curve, poor fit]",–
CCOc1ccc2nc(NC(=O)Cn3cnc4c3c(=O)n(C)c(=O)n4C)sc2c1,–,inactive: 16.8%
C/C(N)=C(/C#N)C(=O)COC(=O)c1ccc(C#N)cc1,–,inactive: -5.76% [at 46.1 µM]
Cc1ccc(S(=O)(=O)Nc2ccc(NC(=O)/C=C/C(=O)O)cc2)cc1,–,inactive: -21.1% [at 46.1 µM]
Oc1cc2c(cc1C(c1ccc(Cl)c(Cl)c1)N1CCCC1)OCO2 (stereo unspecified),"inconclusive: 7.94 µM [inhibitor, partial curve]",–
CC(Oc1ccc(C#N)cc1)C(=O)Nc1ccc(-n2cnnn2)cc1 (stereo unspecified),–,inactive: -6.91%
C/C(CC(=O)NC1CCCCCC1)=N\NC(=O)c1cnccn1,"inconclusive: 0.562 µM [activator, full curve, poor fit]",–
COc1ccc(CNC(=O)C(Cc2ccccc2)NS(=O)(=O)c2ccc3c(c2)CCN3C(C)=O)cc1 (stereo unspecified),"inconclusive: 1.41 µM [inhibitor, full curve, poor fit]",–
Cc1ccccc1OCCOCCN1CCCCCC1,active: 10 µM,–
COc1ccc(N=NC2=C(O)CC(C)(C)CC2=O)c(OC)c1,–,inactive: 12.5%
Fc1cc(F)cc(NC(=S)Nc2ccccc2N2CCOCC2)c1,"inconclusive: 35.5 µM [inhibitor, single point]",–
COc1ccc(NS(=O)(=O)c2cccc3cccnc23)cc1,–,inactive: -24.6%

# 3 entries from above, bar-delimited.
SMILES | Potency | activity change, negative = inhibition
COc1ccccc1-c1cc(C(=O)N/N=C/c2sccc2C)c2ccccc2n1 | active: 12.6 µM | –
CC(Oc1ccc(C#N)cc1)C(=O)Nc1ccc(-n2cnnn2)cc1 (stereo unspecified) | – | inactive: -6.91%
COc1ccc(N=NC2=C(O)CC(C)(C)CC2=O)c(OC)c1 | – | inactive: 12.5%
